The list shows a part of the results.

This passage reports binding signal results from publication PMC7819943, “Rice protein-binding microarrays: a tool to detect cis-acting elements near promoter regions in rice”.

The assay has as its target T1, OsSMF1 (Oryza sativa, UniProt Q6ZLB0 1-436).
T1 sequence: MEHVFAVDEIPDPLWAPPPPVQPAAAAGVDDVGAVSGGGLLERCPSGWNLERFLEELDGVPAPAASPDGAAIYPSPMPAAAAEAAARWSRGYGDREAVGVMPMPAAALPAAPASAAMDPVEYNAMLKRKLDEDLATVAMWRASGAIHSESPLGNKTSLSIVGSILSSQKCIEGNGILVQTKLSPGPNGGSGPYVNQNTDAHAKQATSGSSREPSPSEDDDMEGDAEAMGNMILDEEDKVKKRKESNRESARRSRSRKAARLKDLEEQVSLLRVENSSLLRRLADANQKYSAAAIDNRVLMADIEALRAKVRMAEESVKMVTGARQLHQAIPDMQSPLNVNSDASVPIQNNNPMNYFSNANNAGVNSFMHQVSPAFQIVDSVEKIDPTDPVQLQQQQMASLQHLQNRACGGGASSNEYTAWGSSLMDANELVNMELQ
In words: protein-binding microarray (RPBM); PBS, 2% BSA, 51.3 ng/ul salmon testes DNA, 50 uM zinc acetate, 200 nM TF, 25 C, 1 h; high values mean tight binding. To be noted: protein: recombinant; tags: N-terminal polyhistidine and DsRed monomer fusion (pET32a); chain copies: 2; label: CyDye5-dUTP incorporated in the synthesized complementary strand; 3' TTTTT single-stranded linker to array surface; dsDNA, one strand shown. An outline of the steps: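 In PBS with 2% BSA, salmon testes DNA and 50 µM zinc acetate, 200 nM protein was incubated on a custom Agilent array at 25 °C for 1 h and then washed off. The array had been made double-stranded by primer extension with Cy5-dUTP and blocked with 2% BSA. The proteins were transcription factors fused N-terminally to polyhistidine and DsRed, expressed in E. coli BL21-CodonPlus and purified on Ni–NTA. The binding signal is per-feature fluorescence intensity (arbitrary units) from an Axon 4000B scanner.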
Turning to “CAGTTGAGGCTAGGTGGTGTTTATTGACACTATCAAAATTCGGAGTCACCTAGTGCAG”, the binding signal is 3230 fluorescence intensity (a.u.).
For “CCTGCTTAATTATTGCCTAGGATGCTCTGTCATCCTAATTCGGAGTCACCTAGTGCAG”, the binding signal is 3250 fluorescence intensity (a.u.).
“GTCATGGAACTCGTGGCGTCATCACATCAGCAAATCCAAGCGGAGTCACCTAGTGCAG”: the binding signal is 6520 fluorescence intensity (a.u.).
The figure for “GTTTTGTATGTAATTATTGCTAGTGGATGATGATGTATCACGGAGTCACCTAGTGCAG” is 3770 fluorescence intensity (a.u.).
The figure for “CCAGCCCAGCTGTCCACGTCAGCCATGGCCCTTCTGGTGGCGGAGTCACCTAGTGCAG” is 23800 fluorescence intensity (a.u.); for “TGAGGGCACAGTGCTCTCGAGCATGTCTGCCACGTAGGATCGGAGTCACCTAGTGCAG” it is 23800 fluorescence intensity (a.u.).
The value for “TATGTGGATAATTGCAGTTCATCCACGTATGACAACTGGGCGGAGTCACCTAGTGCAG” was 8410 fluorescence intensity (a.u.); that for “ATTTTGATCCACCAGTTTACACGCCAGGAATTAAACCATGCGGAGTCACCTAGTGCAG” was 3670 fluorescence intensity (a.u.).
As to “TGGACTTGGTCAGGGACTTTGTGCGTCAGAATTTCTATGCCGGAGTCACCTAGTGCAG”, the binding signal is 3600 fluorescence intensity (a.u.).
The figure for “TGCCAACGTAATAGACAGTACGGTACAGAACATGTCAAATCGGAGTCACCTAGTGCAG” is 3670 fluorescence intensity (a.u.).
The value for “CAGACGGTCGTCGTCACCGCGGCGAACGGCTCGTCGGTGGCGGAGTCACCTAGTGCAG” was 4130 fluorescence intensity (a.u.); that for “CCGTGGGACTTGTAGGGCTTGACGAGGGCGCCGGTGTGGGCGGAGTCACCTAGTGCAG” was 3280 fluorescence intensity (a.u.).
With “CAACGCCCTCCGTCGTCACGAAGTAATCGGCGCCGTCTTTCGGAGTCACCTAGTGCAG”, the binding signal was 4620 fluorescence intensity (a.u.).
The value for “TTTGAAACCGAATATATGTTGTGGATGCGTCACGGCCCACCGGAGTCACCTAGTGCAG” was 8350 fluorescence intensity (a.u.); that for “CGCCGGTCTTCTGGCTTACGCGGCTAAGGAATATCTATGCCGGAGTCACCTAGTGCAG” was 3360 fluorescence intensity (a.u.).
The value for “CATGCTTAACAGCGTAATTAAGCTTGCATTGCTAATCCTGCGGAGTCACCTAGTGCAG” was 3170 fluorescence intensity (a.u.).
The figure for “TTTAGTAAATTACCTGCTCTTGAAATTGTTGGTTTCAGGCCGGAGTCACCTAGTGCAG” is 7840 fluorescence intensity (a.u.); for “TTCGTGCCCAACCGCACCGCACGTCGTCCGTCCCCACCCCCGGAGTCACCTAGTGCAG” it is 4000 fluorescence intensity (a.u.); for “TTTATTTTGGTGACTAAGATGCCACATTAGTGAAATCAGGCGGAGTCACCTAGTGCAG” it is 3440 fluorescence intensity (a.u.).
“AATCCCTTAGGATTTCTTACCGAACTTGTACAAACACCTACGGAGTCACCTAGTGCAG”: the binding signal is 18900 fluorescence intensity (a.u.).
Consider “TTAGTGGCAAGAGATGTAAGAAACAAAATCCCCACATGGACGGAGTCACCTAGTGCAG”, for which the binding signal is 3210 fluorescence intensity (a.u.).
“CCGGCCTAACCAGGAAATTGCAGACTTGACTCGTCACTTGCGGAGTCACCTAGTGCAG”: the binding signal is 4100 fluorescence intensity (a.u.).
The figure for “TATAACTCGCGTATTTGTAGGATGCTATTATACAGTTTTCCGGAGTCACCTAGTGCAG” is 3490 fluorescence intensity (a.u.).
Take “ACCAGTACCTGAATTATCAGAAATTGATCATTTGCGTAATCGGAGTCACCTAGTGCAG”: the binding signal was 13900 fluorescence intensity (a.u.).
As for “TTAATTAGCATTTGGTTGGATTGTGGCAGGTGACAGTGCGCGGAGTCACCTAGTGCAG”, the binding signal was 3170 fluorescence intensity (a.u.).
With “CCCATGTGGCCACGTATGGTGGAAAATGAACATCCTTGTTCGGAGTCACCTAGTGCAG”, the binding signal is 4600 fluorescence intensity (a.u.).
As for “GATAGCGATGTGGAGTTTGAGATGGCTATGGAGGCATGTGCGGAGTCACCTAGTGCAG”, the binding signal is 4350 fluorescence intensity (a.u.).
The figure for “CGAATGTACGGTCTGCCTAGTGGCGGAAGCTAGTATCCTTCGGAGTCACCTAGTGCAG” is 3180 fluorescence intensity (a.u.).
Consider “TCGTTCGTTCATCTAACTGCACGTCACGCCCTCCGCGTGTCGGAGTCACCTAGTGCAG”, for which the binding signal is 9890 fluorescence intensity (a.u.).
The value for “AGGCATATTTTGGAATAGCAGAGGTCTCGGTGACTTGGCTCGGAGTCACCTAGTGCAG” was 3460 fluorescence intensity (a.u.).
The value for “ACGGTTTGCTTCGCCACACGCGCACAGAAACACACACACACGGAGTCACCTAGTGCAG” was 3380 fluorescence intensity (a.u.); that for “AATTAACCTGGCAGCTGATACACGTACTCTTGCTTTGGCCCGGAGTCACCTAGTGCAG” was 5300 fluorescence intensity (a.u.); that for “AGGAAGCATGGTGGTGGTCGTCGTGGCATGGATGGCGTCTCGGAGTCACCTAGTGCAG” was 4890 fluorescence intensity (a.u.).
The value for “CAGTGATCCTATTCGAAAACTTCACGCCTCCGACACGTGGCGGAGTCACCTAGTGCAG” was 9740 fluorescence intensity (a.u.); that for “TCATCATCATCATCATTATTAAAGTAAATTTCAGAAAACTCGGAGTCACCTAGTGCAG” was 21600 fluorescence intensity (a.u.); that for “AATGATAAAATTTTAATTAATCATATGCTAATGACTTACTCGGAGTCACCTAGTGCAG” was 3230 fluorescence intensity (a.u.).
With “TGCCAGAGGGATCTAAATATGGCCTTAGTATTATTCCGTGCGGAGTCACCTAGTGCAG”, the binding signal is 8170 fluorescence intensity (a.u.).
The figure for “CTCTCTCCTATCCTCCTTCTTCCTCACGCACGTGGCGGAGCGGAGTCACCTAGTGCAG” is 4310 fluorescence intensity (a.u.).
Consider “AAATATTTATTGAAAAGTGATATGTGTATACTTTTATGAACGGAGTCACCTAGTGCAG”, for which the binding signal is 21800 fluorescence intensity (a.u.).
Take “TTGTTGAAGCAGTTTAATGTTAATAGTATACTAACATTAACGGAGTCACCTAGTGCAG”: the binding signal was 28600 fluorescence intensity (a.u.).
On to “AACCATCATCATTCATCACCAATCATGAGATCCACTCCCCCGGAGTCACCTAGTGCAG”, for which the binding signal is 3280 fluorescence intensity (a.u.).
The value for “CATCGAGCACGAGTATGACTCGATGTATAATGTCGTATATCGGAGTCACCTAGTGCAG” was 3360 fluorescence intensity (a.u.).
